Source: doi:10.1101/526509

By UniProt entry, the sequences of proteins in these tests, tags left out.
UniProt Q63357: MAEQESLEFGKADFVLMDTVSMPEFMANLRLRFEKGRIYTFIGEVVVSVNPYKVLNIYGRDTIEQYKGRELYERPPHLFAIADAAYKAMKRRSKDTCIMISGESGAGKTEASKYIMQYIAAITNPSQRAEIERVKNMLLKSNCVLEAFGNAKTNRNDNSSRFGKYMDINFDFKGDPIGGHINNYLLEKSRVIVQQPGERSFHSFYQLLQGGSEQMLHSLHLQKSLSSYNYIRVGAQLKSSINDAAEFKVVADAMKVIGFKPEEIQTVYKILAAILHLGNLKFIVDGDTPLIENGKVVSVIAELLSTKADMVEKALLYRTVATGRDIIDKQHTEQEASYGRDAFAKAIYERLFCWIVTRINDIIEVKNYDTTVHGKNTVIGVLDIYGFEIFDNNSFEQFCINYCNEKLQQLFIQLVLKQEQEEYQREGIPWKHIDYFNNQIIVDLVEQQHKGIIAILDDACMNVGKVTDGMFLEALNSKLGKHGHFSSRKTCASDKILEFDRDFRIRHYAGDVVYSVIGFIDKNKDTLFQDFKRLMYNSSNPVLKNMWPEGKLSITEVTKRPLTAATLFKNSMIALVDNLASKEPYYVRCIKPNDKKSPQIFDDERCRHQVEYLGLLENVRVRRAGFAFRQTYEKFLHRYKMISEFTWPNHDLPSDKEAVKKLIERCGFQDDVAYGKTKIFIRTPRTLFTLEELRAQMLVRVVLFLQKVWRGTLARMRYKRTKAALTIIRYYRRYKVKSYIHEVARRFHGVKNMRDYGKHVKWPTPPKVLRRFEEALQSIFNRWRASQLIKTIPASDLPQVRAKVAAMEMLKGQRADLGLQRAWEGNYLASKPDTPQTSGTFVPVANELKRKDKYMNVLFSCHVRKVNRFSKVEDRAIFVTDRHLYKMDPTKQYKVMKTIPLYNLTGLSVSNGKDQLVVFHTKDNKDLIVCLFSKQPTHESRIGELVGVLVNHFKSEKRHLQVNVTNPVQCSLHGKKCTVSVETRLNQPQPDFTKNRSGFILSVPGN
UniProt Q9QXQ0: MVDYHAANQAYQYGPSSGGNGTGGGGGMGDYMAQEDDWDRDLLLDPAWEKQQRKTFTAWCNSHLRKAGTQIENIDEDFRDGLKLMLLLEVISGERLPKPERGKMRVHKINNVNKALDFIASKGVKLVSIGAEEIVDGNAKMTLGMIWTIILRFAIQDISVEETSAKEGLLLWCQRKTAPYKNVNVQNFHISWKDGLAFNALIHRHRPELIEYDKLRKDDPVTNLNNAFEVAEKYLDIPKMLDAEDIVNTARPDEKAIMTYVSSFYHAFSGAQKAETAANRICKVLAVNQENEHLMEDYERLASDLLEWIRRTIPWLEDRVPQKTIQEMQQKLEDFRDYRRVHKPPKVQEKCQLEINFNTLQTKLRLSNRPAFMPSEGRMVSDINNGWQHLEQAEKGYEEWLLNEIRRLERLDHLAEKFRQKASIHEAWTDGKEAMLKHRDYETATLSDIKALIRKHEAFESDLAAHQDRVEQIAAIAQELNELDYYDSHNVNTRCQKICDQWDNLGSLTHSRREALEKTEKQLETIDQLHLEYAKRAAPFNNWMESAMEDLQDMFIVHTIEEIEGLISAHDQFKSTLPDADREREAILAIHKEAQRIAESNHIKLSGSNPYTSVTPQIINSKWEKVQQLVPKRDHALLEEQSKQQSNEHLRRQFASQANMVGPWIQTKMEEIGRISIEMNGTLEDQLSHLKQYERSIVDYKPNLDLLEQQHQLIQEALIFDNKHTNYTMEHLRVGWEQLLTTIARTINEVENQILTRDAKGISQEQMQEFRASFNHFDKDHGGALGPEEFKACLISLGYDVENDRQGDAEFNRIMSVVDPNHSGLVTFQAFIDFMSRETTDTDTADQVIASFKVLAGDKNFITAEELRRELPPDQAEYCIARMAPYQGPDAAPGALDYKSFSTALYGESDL
UniProt P08413: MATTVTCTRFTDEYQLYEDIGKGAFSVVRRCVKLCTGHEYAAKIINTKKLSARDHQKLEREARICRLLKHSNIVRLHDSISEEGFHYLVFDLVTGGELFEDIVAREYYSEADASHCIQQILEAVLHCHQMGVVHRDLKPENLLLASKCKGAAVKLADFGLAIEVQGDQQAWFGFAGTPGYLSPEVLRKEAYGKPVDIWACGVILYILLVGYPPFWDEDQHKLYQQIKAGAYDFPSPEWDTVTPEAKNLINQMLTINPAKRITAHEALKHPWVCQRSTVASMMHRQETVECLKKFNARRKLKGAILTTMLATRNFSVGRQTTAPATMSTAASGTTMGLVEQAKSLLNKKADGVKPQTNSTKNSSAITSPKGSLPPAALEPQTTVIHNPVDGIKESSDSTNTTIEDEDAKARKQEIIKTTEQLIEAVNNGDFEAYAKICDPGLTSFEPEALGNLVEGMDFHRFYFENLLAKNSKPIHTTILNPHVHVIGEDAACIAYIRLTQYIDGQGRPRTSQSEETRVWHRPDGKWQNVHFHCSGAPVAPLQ
UniProt O35412: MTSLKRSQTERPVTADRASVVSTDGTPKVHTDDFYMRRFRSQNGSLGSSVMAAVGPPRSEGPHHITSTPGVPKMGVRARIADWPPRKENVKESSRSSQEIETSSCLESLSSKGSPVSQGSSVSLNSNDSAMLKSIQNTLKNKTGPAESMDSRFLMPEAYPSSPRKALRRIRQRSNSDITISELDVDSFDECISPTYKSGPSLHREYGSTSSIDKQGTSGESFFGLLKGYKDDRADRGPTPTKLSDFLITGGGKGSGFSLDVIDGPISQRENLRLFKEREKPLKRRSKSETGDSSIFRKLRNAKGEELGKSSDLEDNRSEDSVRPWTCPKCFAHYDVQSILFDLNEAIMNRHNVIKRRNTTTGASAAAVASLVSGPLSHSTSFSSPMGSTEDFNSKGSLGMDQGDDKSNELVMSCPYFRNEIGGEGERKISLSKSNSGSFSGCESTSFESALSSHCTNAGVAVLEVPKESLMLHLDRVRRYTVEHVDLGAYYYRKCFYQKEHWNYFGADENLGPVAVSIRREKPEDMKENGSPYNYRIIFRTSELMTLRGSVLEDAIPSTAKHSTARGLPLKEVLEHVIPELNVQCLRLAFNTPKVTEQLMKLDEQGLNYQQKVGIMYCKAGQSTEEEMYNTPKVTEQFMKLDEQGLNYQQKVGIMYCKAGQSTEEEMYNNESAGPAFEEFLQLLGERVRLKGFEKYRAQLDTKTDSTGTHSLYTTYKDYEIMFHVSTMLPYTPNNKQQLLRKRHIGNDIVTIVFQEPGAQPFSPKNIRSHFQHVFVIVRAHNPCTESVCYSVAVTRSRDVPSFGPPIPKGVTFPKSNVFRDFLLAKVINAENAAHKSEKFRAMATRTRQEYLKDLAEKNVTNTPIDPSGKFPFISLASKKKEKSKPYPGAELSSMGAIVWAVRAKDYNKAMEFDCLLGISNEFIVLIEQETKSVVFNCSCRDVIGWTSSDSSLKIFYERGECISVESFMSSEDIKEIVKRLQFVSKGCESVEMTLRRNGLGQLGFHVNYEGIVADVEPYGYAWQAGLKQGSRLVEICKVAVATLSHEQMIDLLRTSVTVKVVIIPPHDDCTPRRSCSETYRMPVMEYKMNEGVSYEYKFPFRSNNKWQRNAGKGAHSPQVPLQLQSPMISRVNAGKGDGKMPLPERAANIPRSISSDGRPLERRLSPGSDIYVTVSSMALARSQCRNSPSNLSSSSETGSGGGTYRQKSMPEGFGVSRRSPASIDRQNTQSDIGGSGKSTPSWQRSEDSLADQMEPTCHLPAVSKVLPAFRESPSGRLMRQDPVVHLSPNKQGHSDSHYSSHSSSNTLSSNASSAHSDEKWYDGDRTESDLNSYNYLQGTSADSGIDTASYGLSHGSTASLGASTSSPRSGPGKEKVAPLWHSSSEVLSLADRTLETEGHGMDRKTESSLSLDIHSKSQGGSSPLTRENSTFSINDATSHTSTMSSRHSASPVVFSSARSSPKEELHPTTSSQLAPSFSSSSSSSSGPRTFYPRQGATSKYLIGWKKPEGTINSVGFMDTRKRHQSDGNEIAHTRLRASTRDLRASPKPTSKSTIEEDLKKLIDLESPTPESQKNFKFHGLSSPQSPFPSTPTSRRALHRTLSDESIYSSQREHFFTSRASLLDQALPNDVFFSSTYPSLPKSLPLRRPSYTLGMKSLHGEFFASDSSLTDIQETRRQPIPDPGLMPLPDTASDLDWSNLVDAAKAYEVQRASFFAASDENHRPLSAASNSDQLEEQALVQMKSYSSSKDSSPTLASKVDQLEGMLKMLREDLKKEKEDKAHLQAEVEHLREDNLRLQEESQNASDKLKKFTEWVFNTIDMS
UniProt Q9QYF3: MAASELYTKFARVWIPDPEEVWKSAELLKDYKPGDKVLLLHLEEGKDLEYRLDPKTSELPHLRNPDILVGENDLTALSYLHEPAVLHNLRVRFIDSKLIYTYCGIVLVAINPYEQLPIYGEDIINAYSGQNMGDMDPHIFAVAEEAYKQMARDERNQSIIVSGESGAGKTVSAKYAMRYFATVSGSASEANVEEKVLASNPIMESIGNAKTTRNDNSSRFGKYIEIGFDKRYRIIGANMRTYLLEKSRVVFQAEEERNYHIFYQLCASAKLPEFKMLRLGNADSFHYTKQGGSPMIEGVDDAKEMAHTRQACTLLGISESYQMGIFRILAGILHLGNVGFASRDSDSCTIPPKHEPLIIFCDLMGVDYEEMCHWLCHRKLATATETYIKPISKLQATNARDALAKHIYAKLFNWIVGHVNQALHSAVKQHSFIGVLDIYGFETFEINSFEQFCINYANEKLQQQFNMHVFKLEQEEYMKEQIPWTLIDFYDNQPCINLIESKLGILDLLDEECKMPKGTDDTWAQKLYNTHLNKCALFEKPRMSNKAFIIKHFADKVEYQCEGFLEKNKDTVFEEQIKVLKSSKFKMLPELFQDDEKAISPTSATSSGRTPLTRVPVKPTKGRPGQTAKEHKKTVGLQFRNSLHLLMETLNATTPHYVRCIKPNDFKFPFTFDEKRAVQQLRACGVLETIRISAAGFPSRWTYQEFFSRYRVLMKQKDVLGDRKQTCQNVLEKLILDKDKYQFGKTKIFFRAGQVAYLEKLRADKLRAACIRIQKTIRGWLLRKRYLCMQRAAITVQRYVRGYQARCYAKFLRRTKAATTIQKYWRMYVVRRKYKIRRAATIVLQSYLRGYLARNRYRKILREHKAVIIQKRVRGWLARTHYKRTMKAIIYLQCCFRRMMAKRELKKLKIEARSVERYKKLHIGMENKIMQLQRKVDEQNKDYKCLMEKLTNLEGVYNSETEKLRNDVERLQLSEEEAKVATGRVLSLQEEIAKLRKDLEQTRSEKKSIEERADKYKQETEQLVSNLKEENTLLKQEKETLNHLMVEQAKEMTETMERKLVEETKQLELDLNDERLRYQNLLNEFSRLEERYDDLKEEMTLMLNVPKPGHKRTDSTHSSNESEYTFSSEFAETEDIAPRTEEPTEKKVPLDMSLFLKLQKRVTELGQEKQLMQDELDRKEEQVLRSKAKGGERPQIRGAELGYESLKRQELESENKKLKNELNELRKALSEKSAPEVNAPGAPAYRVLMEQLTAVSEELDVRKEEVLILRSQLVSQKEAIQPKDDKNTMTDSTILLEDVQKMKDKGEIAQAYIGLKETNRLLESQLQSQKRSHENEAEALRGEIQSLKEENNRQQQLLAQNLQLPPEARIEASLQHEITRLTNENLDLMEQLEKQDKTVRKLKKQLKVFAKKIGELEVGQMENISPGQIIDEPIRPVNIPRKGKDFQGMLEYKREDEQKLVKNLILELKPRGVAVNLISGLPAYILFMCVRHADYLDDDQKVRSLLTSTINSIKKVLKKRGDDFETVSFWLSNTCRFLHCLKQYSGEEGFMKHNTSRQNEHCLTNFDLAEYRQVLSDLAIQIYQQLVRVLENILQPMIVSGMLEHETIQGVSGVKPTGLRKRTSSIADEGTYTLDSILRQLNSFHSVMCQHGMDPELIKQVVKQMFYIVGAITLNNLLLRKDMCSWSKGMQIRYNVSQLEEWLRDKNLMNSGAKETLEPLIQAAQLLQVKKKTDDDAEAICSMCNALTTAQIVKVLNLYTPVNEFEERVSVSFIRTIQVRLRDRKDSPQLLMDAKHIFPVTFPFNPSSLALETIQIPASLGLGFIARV
UniProt P68511: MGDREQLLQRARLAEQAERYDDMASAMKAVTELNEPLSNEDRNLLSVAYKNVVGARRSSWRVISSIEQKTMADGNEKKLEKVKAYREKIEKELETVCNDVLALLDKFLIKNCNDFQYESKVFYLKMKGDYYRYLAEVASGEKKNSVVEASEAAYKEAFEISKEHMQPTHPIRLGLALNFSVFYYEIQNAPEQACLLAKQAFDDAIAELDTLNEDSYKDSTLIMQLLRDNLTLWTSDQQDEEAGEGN

Key:
[1] = molecular target: T1, bio-GFP-synaptopodin (mouse) (UniProt Q8CC35); test: affinity purification with mass spectrometry
T1 sequence (chain, biotin (biotinylated; HA-BirA co-expressed)): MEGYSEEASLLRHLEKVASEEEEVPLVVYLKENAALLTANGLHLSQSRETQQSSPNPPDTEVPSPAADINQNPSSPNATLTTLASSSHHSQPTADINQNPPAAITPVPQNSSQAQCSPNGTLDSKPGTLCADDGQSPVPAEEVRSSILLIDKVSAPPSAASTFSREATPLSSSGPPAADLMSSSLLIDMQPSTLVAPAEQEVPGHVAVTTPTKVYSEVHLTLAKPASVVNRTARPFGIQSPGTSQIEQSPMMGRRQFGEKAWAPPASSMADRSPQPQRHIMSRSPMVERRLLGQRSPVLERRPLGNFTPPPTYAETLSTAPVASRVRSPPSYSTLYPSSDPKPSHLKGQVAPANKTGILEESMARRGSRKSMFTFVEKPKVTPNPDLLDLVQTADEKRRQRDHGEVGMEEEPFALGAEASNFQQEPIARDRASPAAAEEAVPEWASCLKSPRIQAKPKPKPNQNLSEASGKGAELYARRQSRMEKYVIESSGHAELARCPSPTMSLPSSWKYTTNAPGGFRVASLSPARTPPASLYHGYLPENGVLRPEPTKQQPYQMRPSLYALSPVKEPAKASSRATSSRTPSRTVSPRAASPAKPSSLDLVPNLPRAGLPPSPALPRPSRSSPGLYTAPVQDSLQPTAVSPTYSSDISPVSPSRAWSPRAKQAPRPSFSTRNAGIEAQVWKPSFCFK

[2] = molecular target: T1, bio-GFP-synaptopodin (mouse); test: affinity purification with mass spectrometry; remark: listed apart in the source

Molecule: actinin (Actn2) (from UniProt D3ZCV0 1-967)
binding [1]: binds

Molecule: coronin (Coro2a) (rat (endogenous in rat brain lysate))
binding [1]: binds

Molecule: gelsolin (Gsn) (from UniProt Q68FP1 26-780)
binding [1]: binds

Molecule: myosin Vb (from UniProt P70569 1-1846)
binding [1]: binds

B1: coronin (Coro2b) (protein, UniProt F1LMV9 1-480)
chain: MTVTKMSWRPQYRSSKFRNVYGKVANREHCFDGIPITKNVHDNHFCAVNARFLAIVTESAGGGSFLVIPLEQTGRIEPNYPKVCGHQGNVLDIKWNPFIDNIIASCSEDTSVRIWEIPEGGLKRNMTEALLELHGHSRRVGLVEWHPTTNNILFSAGYDYKVLIWNLDIGEPVKMIDCHTDVILCMSFNTDGSLLTTTCKDKKLRVIEPRSGRVLQEANCKNHRVNRVVFLGNMKRLLTTGVSRWNTRQIALWDQEDLSMPMIEEEIDGLSGLLFPFYDADTHMLYLAGKGDGNIRYYEISTEKPYLSYLMEFRSPAPQKGLGVMPKHGLDVSACEVFRFYKLVTLKGLIEPISMIVPRRSDSYQEDIYPMTPGTEPALTPDEWLGGVNRDPVLMSLKEGYKKSSKVVFKAPIREKKSVVVNGIDLLENVPPRTENELLRMFFRQQDEIRRLKEELAQKDIRLRQLQLELKNLRNNPKNC
binding [2]: binds

B2: tropomodulin (Tmod2) (protein, UniProt P70566 1-351)
chain: MALPFQKGLEKYKNIDEDELLGKLSEEELKQLENVLDDLDPESATLPAGFRQKDQTQKAATGPFDREHLLMYLEKEALEQKDREDFVPFTGEKKGRVFIPKEKPVETRKEEKVTLDPELEEALASASDTELYDLAAVLGVHNLLNNPKFDEETTNGQGRKGPVRNVVKGEKAKPVFEEPPNPTNVEASLQQMKANDPSLQEVNLNNIKNIPIPTLKEFAKALETNTHVRKFSLAATRSNDPVALAFAEMLKVNKTLKSLNVESNFITGAGILALVEALRENDTLTEIKIDNQRQQLGTAVEMEIAQMLEENSRILKFGYQFTKQGPRTRVAAAITKNNDLVRKKRVEGDRR
binding [2]: binds

More lines, now with the values ahead:

binding [1]: binds
Molecule: myosin Id (from UniProt Q63357 1-1006)

binding [1]: binds
Molecule: actinin (Actn4) (from UniProt Q9QXQ0 1-911)

binding [1]: binds
Molecule: CamKIIβ (from UniProt P08413 1-542) (enzyme)

binding [1]: binds
Molecule: tropomodulin (Tmod3) (rat (endogenous in rat brain lysate))

binding [1]: binds
Molecule: Sipa1l1 (from UniProt O35412 1-1822)

binding [1]: binds
Molecule: myosin Va (from UniProt Q9QYF3 1-1828)

binding [1]: binds
Molecule: 14-3-3 eta (from UniProt P68511 1-246)

Read-outs that look alike come from different tables or passages of the source. No constants are given. Whether binding was seen depends on the method and setting. Binding seen in cells or lysates may run through a third protein. Here binding means that the protein was enriched with, or labelled near, the bait; the list need not be complete. Tags and fused reporters may be left off the sequences shown. One block for each molecule: values may come before it.
